Test results reported in PubChem BioAssay AID278 (DTP/NCI, 2004).
The list shows only some results of the screen, not a fair sample: its compounds were picked by chemical class. Other doses and runs of a compound may be missing. T/C gives the treated animals as a percentage of the vehicle group. Schedules are NCI's codes, taken here to give the interval after Q, in days (D) or hours (H), and the number of doses after X. Some entries show no survivor count and are marked so; the dose need not have been tolerated.

System: nude mice, A549 intrarenal xenograft, tumor weight change
Experiment: NCI In Vivo Anticancer Drug Screen. Data for tumor model A549 Human Adenocarcinoma of Lung with characteristics of Type II Alveolar Epithelial cells (intrarenal inoculation) in NU/NU BALB/C (nude) mice
Conditions: T/C endpoint: mean tumor weight change, schedule: Q04DX003 (ip), evaluated on day 12, higher T/C = larger tumour
Procedure: The antitumor activity of compounds was measured in mice bearing transplantable tumors. Survival or tumor size were measured and the results are expressed as the measurement made in the treated group (T) divided by the measurement made in the vehicle treated control group (C). The tumor model used in this assay is A549 Human Adenocarcinoma of Lung with characteristics of Type II Alveolar Epithelial cells (intrarenal inoculation) in NU/NU BALB/C (nude) mice

Structure (SMILES)	T/C (dose: 12.5 mg/kg/injection, vehicle: saline + alcohol)	T/C (dose: 50.0 mg/kg/injection, vehicle: saline + alcohol)	T/C (dose: 1.25 mg/kg/injection, vehicle: Klucel (hydroxypropylcellulose) (HPC))	T/C (dose: 2.5 mg/kg/injection, vehicle: Klucel (hydroxypropylcellulose) (HPC))
CC(O)C1/C=C/C=C/C(=O)OC2CC3OC4C5OC5(C)C(O)CC4(COC(=O)C(O)C(C)CCO1)C2(C)C31CO1 (centres undefined)	80 % of control [survivor count not shown]	57 % of control [survivor count not shown]		
CC1=C[C@H]2O[C@@H]3C[C@H]4OC(=O)/C=C\C=C\[C@H]([C@@H](C)O)OC[C@H](O)[C@@]5(C)O[C@@H]5C(=O)OC[C@@]2(C[C@H]1O)[C@]4(C)C31CO1 (some centres undefined)			92 % of control [survivor count not shown]	85 % of control [survivor count not shown]
